# Hit rate of the full screen: of about 400,000 compounds, about 13,000 (3.2%) were called active. This list was built around the results that the source calls inconclusive (neither active nor inactive); the mix of calls is not that of the screen. Calls follow the shape of the dose curve; as a rule, active = well fitted cell-killing curve with a large enough effect; inconclusive = small, poorly fitted or top-dose-only effect, or effect the other way; inactive = flat fitted curve, though single readings scatter. Potencies beside an inconclusive call are fits to weak or partial responses and may not hold up.
# Assay: qHTS assay for MDR1-selective chemotherapeutics: Primary screen using the drug-selected MDR subline cells KB-V1; also: nearly all actives have a fitted effect of over 60% in size
# Conditions: KB-V1 MDR cells viability, CellTiter-Glo, 72 h; series mostly up to 46.1 µM
# How it was run: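 Cytotoxicity toward P-gp-expressing KB-V1 cells was determined as loss of CellTiter-Glo luminescence after 72 h at 37 degrees C. Compounds were tested in quantitative HTS format across a concentration range, with curves fitted to normalized data.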
# Potency is read from the fitted curve at half-maximal effect.
row,Structure (SMILES),Potency
1,CC(C)OCCCNC(=S)N1CCC(C(=O)c2ccc(F)cc2)CC1,"inconclusive: 11.6 µM [cytotoxic, partial curve, poor fit]"
2,Cc1ccc(N(CCC#N)C(=O)CSc2ccc3c(c2)OCCO3)cc1,"inconclusive: 10.3 µM [cytotoxic, partial curve, poor fit]"
3,Brc1cccc2sc(N3CCN(c4ccccc4)CC3)nc12,"inconclusive: 20.6 µM [cytotoxic, single point]"
4,Cc1cc(C)n2nc(SCC(=O)NC(=O)c3ccccc3)nc2n1,"inconclusive: 6.51 µM [rising, partial curve, poor fit]"
5,Cc1cc(C)c(S(=O)(=O)N2CCCCC2)c(C)c1N(C)S(=O)(=O)c1ccccc1,"inconclusive: 9.2 µM [cytotoxic, single point]"
6,Cn1c(=O)c(=O)n(C)c2cc(S(=O)(=O)N3CCCC3C(=O)NCc3cccs3)ccc21 (configuration not stated),"inconclusive: 18.4 µM [rising, single point]"
7,CCCN1C(=O)c2ccccc2NC1c1ccc(OC)c(COc2ccc([N+](=O)[O-])cc2)c1 (configuration not stated),inactive
8,Cc1ccc(S(=O)(=O)N2CCOCC2)cc1C(=O)N1CC(C)OC(C)C1 (configuration not stated),inactive
9,O=C(NCC1(c2ccccc2)CCCC1)C(=O)Nc1cccc(C(F)(F)F)c1,inactive
10,COc1cc2c(cc1OC)CN(CC(=O)Nc1ccc3c(c1)OC(F)(F)O3)CC2,active: 13 µM
11,C=C(C)Cn1c(=O)c2c(nc3n2CCCN3CCc2ccccc2)n(C)c1=O,"inconclusive: 20.6 µM [cytotoxic, partial curve, poor fit]"
12,COc1ccccc1N1CCN(C(=O)C(CC(C)C)NC(=O)C2CCCCC2)CC1 (configuration not stated),"inconclusive: 1.03 µM [cytotoxic, partial curve]"
13,Cn1c(SCC(=O)NC(C)(C)C)nnc1-c1ccc(C(C)(C)C)cc1,active: 20.6 µM
14,COc1ccccc1N(C(=O)c1ccco1)C(C(=O)NC1CCCC1)c1cccs1 (configuration not stated),"inconclusive: 1.84 µM [cytotoxic, full curve, poor fit]"
15,COC(=O)c1ccccc1NC1=C/C(=N\S(=O)(=O)c2ccc(C(=O)O)cc2)c2ccccc2C1=O,active: 18.4 µM
16,CCCC1=C(C(=O)OCC)C(c2ccc(OC)c(C)c2OC)C(C#N)=C(N)O1 (configuration not stated),inactive
17,COc1ccc(OCC(O)CNC(=O)Nc2ccccc2)cc1 (configuration not stated),"inconclusive: 16.4 µM [rising, partial curve, poor fit]"
18,CCOc1ccc(-c2cc(CCCC(=O)Nc3cccc(OC)c3)no2)cc1,"inconclusive: 2.31 µM [cytotoxic, full curve]"
19,CCn1c(C)nc2c1C(=O)c1ccccc1C2=O,"inconclusive: 18.4 µM [cytotoxic, single point]"
20,CN(C)CCCN(C(=O)c1ccc(S(=O)(=O)N2CCCCCC2)cc1)c1nc2cc3c(cc2s1)OCCO3,inactive
21,CC1CCCCN1CCNC(=O)c1ccc2c(=O)n(CCc3ccccc3)c(=O)[nH]c2c1 (configuration not stated),inactive
22,O=C(c1ccc(Cl)c(S(=O)(=O)Nc2ccc(F)cc2)c1)N1CCN(c2ccccn2)CC1,"inconclusive: 18.4 µM [cytotoxic, single point]"
23,O=C(CCc1nc2ccccc2c(=O)[nH]1)Nc1nnc(SCc2ccc(Cl)cc2)s1,"inconclusive: 29.1 µM [rising, single point]"

# Grouped by structure, the entries above containing an NH in an aromatic ring.
row,Structure (SMILES),Potency
21,CC1CCCCN1CCNC(=O)c1ccc2c(=O)n(CCc3ccccc3)c(=O)[nH]c2c1 (configuration not stated),inactive
23,O=C(CCc1nc2ccccc2c(=O)[nH]1)Nc1nnc(SCc2ccc(Cl)cc2)s1,"inconclusive: 29.1 µM [rising, single point]"

# The list continues:

row,Structure (SMILES),Potency
1,O=C(C1CCN(S(=O)(=O)c2cccnc2)CC1)N1CCN(C2CCCC2)CC1,"inconclusive: 23.1 µM [rising, single point]"
2,COc1ccc(CC(=O)O/N=C(\N)c2ccccc2)cc1OC,inactive
3,COc1ccc(CC(=O)NC2CCCc3ccccc32)cc1 (configuration not stated),"inconclusive: 14.6 µM [cytotoxic, partial curve, poor fit]"
4,CN(C)c1ccnc(-n2cccc2/C=N/OCc2ccccc2)c1C#N,"inconclusive: 18.4 µM [cytotoxic, single point]"
5,CCOc1ncccc1C(=O)OCC(=O)Nc1cc(S(=O)(=O)N2CCCCC2)ccc1Cl,"inconclusive: 18.4 µM [cytotoxic, single point]"
6,COc1ccc(OC)c(NC(=O)C(C)SCc2nc3sc(C)c(C)c3c(=O)[nH]2)c1 (configuration not stated),inactive
7,CN(Cc1ccccc1)C(=O)c1[nH]cnc1C(=O)Nc1ccc(Cl)cc1,"inconclusive: 25.9 µM [cytotoxic, single point]"
8,O=C(CN1CCN(C2CCCCC2)CC1)Nc1ccccc1-c1ccccc1,"inconclusive: 8.2 µM [cytotoxic, partial curve, poor fit]"
9,Cc1ccc(C)c(C(=O)CC2(O)C(=O)N(C)c3ccccc32)c1 (configuration not stated),inactive
10,Cc1cc(C)c2c(N)c(C(=O)c3ccc(Cl)cc3Cl)sc2n1,"inconclusive: 18.4 µM [cytotoxic, single point]"
11,Cc1ccc(Cl)cc1N(C)C(=O)c1sc2nc3n(c(=O)c2c1C)CCCC3,inactive
12,Cc1cccc(NC(=O)c2ccc(S(=O)(=O)N3CCC(C)CC3)cc2)n1,"inconclusive: 5.17 µM [cytotoxic, full curve]"
13,Cc1ccc(-n2ncc(C(=O)NCC3CCN(C4CCCC4)C3)c2C2CCN(C(=O)OC(C)(C)C)CC2)cc1C (configuration not stated),"inconclusive: 11.6 µM [rising, partial curve]"
14,CN(C)C(CNC(=O)c1cccc(NS(=O)(=O)c2ccc(Br)cc2)c1)c1ccco1 (configuration not stated),"inconclusive: 29.1 µM [cytotoxic, single point]"
15,CCCn1nc(C(=O)Nc2ccc3c(c2)OCCO3)c2ccccc2c1=O,active: 16.4 µM
16,COc1ccccc1C(=O)OCC(=O)Nc1ccc(Cl)cn1,"inconclusive: 18.4 µM [rising, single point]"
17,O=C(c1ccc(Br)s1)N1CCN(c2ncccn2)CC1,"inconclusive: 16.4 µM [cytotoxic, single point]"
18,CC(C)(C)NC(=O)C1CCN(C(=O)c2ccc(Br)cc2)CC1,"inconclusive: 14.6 µM [cytotoxic, partial curve, poor fit]"
19,CC(C)=C1C2CCC1C1C(=O)N(c3nc(-c4ccccc4)c(C)s3)C(=O)C21 (configuration not stated),"inconclusive: 10.3 µM [cytotoxic, partial curve]"
20,O=C(CCN1C(=O)/C(=C/c2cccs2)SC1=S)Nc1ccc(C(=O)O)c(O)c1,"inconclusive: 29.1 µM [rising, single point]"
21,Cc1ccc(CNC(=O)C(C(=O)NCc2ccc(C)o2)c2ncc(C(F)(F)F)cc2Cl)o1,"inconclusive: 7.31 µM [cytotoxic, partial curve, poor fit]"
22,COC(=O)c1cc(NC2(c3ccccc3)C(=O)c3ccccc3C2=O)cc(C(=O)OC)c1,"inconclusive: 18.4 µM [rising, single point]"
23,COC(=O)C1=CN(c2cccc(OCc3ccccc3)c2)C(N)=C(C#N)C1c1cccc(OC)c1OC (configuration not stated),"inconclusive: 3.26 µM [cytotoxic, partial curve, poor fit]"

row,Structure (SMILES),Potency
1,Cc1cc(=O)oc2cc(OCC(=O)N3CCN(C(=O)C4COc5ccccc5O4)CC3)c(Cl)cc12 (configuration not stated),inactive
2,Cc1nc(NC(=S)NC(=O)c2ccccc2)sc1C,inactive
3,Fc1ccc(-c2cnc[nH]2)cc1,"inconclusive: 29.1 µM [rising, single point]"
4,CCOC(=O)c1sc2nc(CC(=O)OC)nc(NCc3ccc(F)cc3)c2c1C,"inconclusive: 2.31 µM [cytotoxic, full curve, poor fit]"
5,Cn1cc(Cl)c(C(=O)Nc2cccc(Cl)c2Cl)n1,"inconclusive: 13 µM [cytotoxic, partial curve]"
6,COC(CSc1ncnc2c1oc1nc3c(cc12)COC(C)(C)C3)OC,"inconclusive: 18.4 µM [cytotoxic, single point]"
7,Cc1cc(O)c(C(C[N+](=O)[O-])c2ccc(Cl)cc2)c(=O)o1 (configuration not stated),inactive
8,CC(C)c1ccc(NC(=S)NC2CCN(Cc3ccccc3)CC2)cc1,active: 20.6 µM
9,O=C(NC(CSC(=O)c1ccccc1)C(=O)O)OCc1ccccc1 (configuration not stated),inactive
10,Cc1ccc2c(C)nc(/N=C(\N)NC(=O)N3c4ccccc4Sc4ccccc43)nc2c1,"inconclusive: 23.1 µM [rising, single point]"
11,Cc1[nH]c2c(C(=O)N3CCCC(CCC(=O)NCc4ccccc4F)C3)cccc2c1C (configuration not stated),active: 16.4 µM
12,CCc1ccc(NC(=O)C(=O)NCCOc2ccccc2Cl)cc1,"inconclusive: 25.9 µM [cytotoxic, single point]"
13,COc1ccc(C2(C)NC(=O)N(CC(=O)c3cc(C)n(C4CC4)c3C)C2=O)cc1OC (configuration not stated),active: 23.1 µM
14,CCCCn1c(-c2csc(C(C)C)c2)n[nH]c1=S,active: 23.1 µM
15,COc1ccc(NC(=O)c2ccco2)cc1NC(=O)c1cccc(C)c1OC,"inconclusive: 14.6 µM [cytotoxic, partial curve, poor fit]"
16,COc1cc(OC)cc(C(=O)Nc2cc(NC(=O)c3ccco3)ccc2OC)c1,"inconclusive: 9.2 µM [cytotoxic, partial curve]"
17,CCN(CC)S(=O)(=O)c1cc(C(=O)OCC(=O)Nc2cccc(S(=O)(=O)N(C)C)c2)ccc1F,"inconclusive: 2.59 µM [rising, partial curve, poor fit]"
18,O=S(=O)(NCc1ccccn1)c1ccc(Br)s1,"inconclusive: 18.4 µM [cytotoxic, single point]"
19,CC1(C)CC(NC(=O)c2coc(=O)c(Br)c2)CC(C)(C)N1,inactive
20,Cc1cc(Cl)ccc1N(CC(=O)NCc1ccc2c(c1)OCO2)S(C)(=O)=O,"inconclusive: 23.1 µM [cytotoxic, single point]"
21,COC(=O)c1[nH]c2cc(C)ccc2c1NC(=O)CN1CCc2cc(OC)c(OC)cc2C1,inactive

# — PubChem BioAssay AID1347076 (National Center for Advancing Translational Sciences (NCATS), 2019)
